Measurements from patent US20110256144A1 (TORAY INDUSTRIES, published 2011).
No constants are given. Whether binding was seen depends on the method and setting. In cells and extracts the contact can be indirect. Some results given as binding are weak or reduced against the parent protein; the word gives no strength.

Target: T1, polypeptide of SEQ ID NO: 136 (human)
T1 sequence (peptide): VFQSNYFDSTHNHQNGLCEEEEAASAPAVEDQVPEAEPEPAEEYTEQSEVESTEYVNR
Assay: trypsin digestion of antibody-bound reduced-alkylated CAPRIN-1, protein A capture, LC-MS

binding: binds
B1: monoclonal antibody #1 against CAPRIN-1 (antibody, V domains shown)
VH: EVQLHQFGAELVKPGASVKISCKASGYTFTDYNMDWVKQSHGKSLEWIGDINPNYDSTSYNQKFKGKATLTVDKSSSTAYMELRSLTSEDTAVYYCARSRSYDYEGFAYWGQGTLVTVSA
VL: DIQMTQSPASLSASVGETVTITCRASGNIHNYLAWYQQKQGKSPQLLVYNAKTLADGVPSRFSGSGSGTQYSLKINSLQPEDFGSYYCQHFWSTLTFGAGTKLELKR
notes: also called the #1 monoclonal antibody to CAPRIN-1; antibody (a)
